Measured values: patent US7098233B2 (priority 2001, dated 2006)
pKi: −log10 of the molar value. Some results were stated once for a whole list of compounds, not compound by compound.

Chains of the proteins cited; added tags and fusions are not shown. Residues count along the entry.
UniProt Q05941, 23-502: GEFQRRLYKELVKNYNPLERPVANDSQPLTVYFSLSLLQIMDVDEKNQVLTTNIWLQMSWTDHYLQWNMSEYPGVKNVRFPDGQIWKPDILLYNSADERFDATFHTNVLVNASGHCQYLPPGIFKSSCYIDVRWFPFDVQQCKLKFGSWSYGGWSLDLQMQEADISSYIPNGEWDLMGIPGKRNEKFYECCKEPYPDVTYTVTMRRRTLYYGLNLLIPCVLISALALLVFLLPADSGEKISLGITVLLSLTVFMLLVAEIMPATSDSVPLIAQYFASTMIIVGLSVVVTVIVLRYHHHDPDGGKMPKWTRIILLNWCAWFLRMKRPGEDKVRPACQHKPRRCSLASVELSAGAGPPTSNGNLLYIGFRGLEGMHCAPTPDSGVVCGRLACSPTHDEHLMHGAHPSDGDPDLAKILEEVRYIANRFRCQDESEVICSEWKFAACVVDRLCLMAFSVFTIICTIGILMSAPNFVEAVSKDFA
UniProt P09483, 31-630: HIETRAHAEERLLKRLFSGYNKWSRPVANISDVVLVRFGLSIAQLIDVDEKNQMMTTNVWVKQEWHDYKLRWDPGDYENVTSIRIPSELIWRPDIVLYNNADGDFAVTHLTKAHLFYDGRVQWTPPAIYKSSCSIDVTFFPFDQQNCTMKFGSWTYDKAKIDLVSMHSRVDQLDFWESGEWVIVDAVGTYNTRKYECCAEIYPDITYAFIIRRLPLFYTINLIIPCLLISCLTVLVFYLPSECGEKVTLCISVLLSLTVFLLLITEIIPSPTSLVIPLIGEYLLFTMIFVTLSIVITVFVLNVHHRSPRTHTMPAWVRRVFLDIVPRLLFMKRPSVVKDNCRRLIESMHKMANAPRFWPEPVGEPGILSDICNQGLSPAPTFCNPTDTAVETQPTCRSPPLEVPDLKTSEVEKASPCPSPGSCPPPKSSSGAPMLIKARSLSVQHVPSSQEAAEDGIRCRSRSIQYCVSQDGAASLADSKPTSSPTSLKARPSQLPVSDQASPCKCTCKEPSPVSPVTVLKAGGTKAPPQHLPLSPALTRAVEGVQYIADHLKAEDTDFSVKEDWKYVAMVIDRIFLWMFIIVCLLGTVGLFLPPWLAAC
UniProt P12390, 25-500: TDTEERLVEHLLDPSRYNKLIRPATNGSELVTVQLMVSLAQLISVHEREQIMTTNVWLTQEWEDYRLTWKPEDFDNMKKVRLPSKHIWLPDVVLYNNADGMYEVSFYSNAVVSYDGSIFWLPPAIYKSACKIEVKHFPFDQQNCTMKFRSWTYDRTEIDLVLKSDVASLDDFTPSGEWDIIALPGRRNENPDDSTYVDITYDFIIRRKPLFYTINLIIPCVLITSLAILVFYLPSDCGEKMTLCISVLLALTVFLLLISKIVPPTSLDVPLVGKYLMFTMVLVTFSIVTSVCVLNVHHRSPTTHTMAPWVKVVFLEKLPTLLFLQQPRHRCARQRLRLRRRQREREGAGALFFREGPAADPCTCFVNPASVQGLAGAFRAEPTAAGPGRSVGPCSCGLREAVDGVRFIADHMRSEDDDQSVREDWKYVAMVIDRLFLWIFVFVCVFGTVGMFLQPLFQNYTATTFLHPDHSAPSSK

Key:
NMDA = experiment: Receptor panel binding: NMDA; details: read-out: affinity value, NMDA
[1] = target: muscarinic (non-selective); experiment: Receptor panel binding: muscarinic; details: read-out: affinity value, muscarinic (non-selective)
[2] = target: N neuronal (α-BGTX-sens.) nicotinic (Rattus norvegicus, UniProt Q05941); experiment: Receptor panel binding: nicotinic N neuronal (α-BGTX-sens.); details: read-out: affinity value, N neuronal (α-BGTX-sens.) nicotinic
[3] = target: N neuronal (α-BGTX-ins.) nicotinic (Rattus norvegicus, UniProt P09483+P12390); experiment: Receptor panel binding: nicotinic N neuronal (α-BGTX-ins.); details: read-out: affinity value, N neuronal (α-BGTX-ins.) nicotinic
opiate (non-selective) = experiment: Receptor panel binding: opiate; details: read-out: affinity value, opiate (non-selective)
ML1 of melatonin = experiment: Receptor panel binding: melatonin ML1; details: read-out: affinity value, ML1 of melatonin
ML2 of melatonin = target: T1, ML2 of melatonin (Mesocricetus auratus, UniProt A0ABM2YAB8); experiment: Receptor panel binding: melatonin ML2; details: read-out: affinity value, ML2 of melatonin
T1 sequence (A0ABM2YAB8 1-231): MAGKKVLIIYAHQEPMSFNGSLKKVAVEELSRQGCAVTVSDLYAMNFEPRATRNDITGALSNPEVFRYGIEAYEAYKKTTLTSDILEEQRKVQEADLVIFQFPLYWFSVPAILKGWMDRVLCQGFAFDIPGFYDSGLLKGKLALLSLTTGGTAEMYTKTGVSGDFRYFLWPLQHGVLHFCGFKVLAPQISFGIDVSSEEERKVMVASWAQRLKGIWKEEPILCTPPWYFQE

Measured: pKi

Cc1[nH]c2ccc(Cl)cc2c1CCN(C)C [ST 1936, 5-chloro-2-methyl-N,N-dimethyltryptamine]
≤ 6.00: all assays above

CCc1[nH]c2ccc(Cl)cc2c1CCN(C)C [ST 2253, 5-Chloro-2-ethyl-N,N-dimethyltryptamine]
≤ 6.00: all assays above
